According to PMC10832218:

What was measured:
[1] = molecular target: T1, BORIS (Brother of Regulator of Imprinted Sites) (human) (UniProt Q8NI51); test: co-IP; Nuclear Complex Co-IP Kit (Active Motif); 200 ug nuclear extract of NIH3T3 + BORIS (clone#2) cells with 3 ug antibody overnight at 4 C, Protein G beads, low salt and detergent IP buffers; extracts with or without benzonase (125 U/mL, on ice, 90 min); Western blot
T1 sequence: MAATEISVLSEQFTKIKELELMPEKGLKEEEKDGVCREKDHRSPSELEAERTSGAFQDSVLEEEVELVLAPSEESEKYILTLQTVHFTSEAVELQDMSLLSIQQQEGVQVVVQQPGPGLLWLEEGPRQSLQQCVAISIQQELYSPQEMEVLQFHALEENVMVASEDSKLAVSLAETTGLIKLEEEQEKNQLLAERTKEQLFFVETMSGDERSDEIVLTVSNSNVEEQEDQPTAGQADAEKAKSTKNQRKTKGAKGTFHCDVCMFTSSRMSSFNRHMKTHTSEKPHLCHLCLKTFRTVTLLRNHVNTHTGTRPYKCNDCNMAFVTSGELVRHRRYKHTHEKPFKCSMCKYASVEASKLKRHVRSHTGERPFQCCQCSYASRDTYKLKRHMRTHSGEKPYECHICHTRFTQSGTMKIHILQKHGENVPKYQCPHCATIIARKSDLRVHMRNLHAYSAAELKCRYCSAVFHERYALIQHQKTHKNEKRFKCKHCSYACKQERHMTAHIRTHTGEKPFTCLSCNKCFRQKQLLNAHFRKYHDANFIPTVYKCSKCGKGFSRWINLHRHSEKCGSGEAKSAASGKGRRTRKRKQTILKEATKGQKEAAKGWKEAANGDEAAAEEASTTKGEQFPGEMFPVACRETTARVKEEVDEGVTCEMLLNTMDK

[2] = molecular target: SRCAP (SNF-2-related CREBBP activator protein) (mouse (endogenous in NIH3T3)); test: as above

“SRCAP (SNF-2-related CREBBP activator protein) (mouse (endogenous in NIH3T3))” was tested, and the binding [1] was “binds”.

B1: BORIS (Brother of Regulator of Imprinted Sites) (protein, UniProt Q8NI51 1-663)
chain: T1 sequence
For B1, the binding [2] was “binds”.

B2: CTCF (CCCTC-Binding Factor) (protein, UniProt Q61164 1-736)
chain: MEGEAVEAIVEESETFIKGKERKTYQRRREGGQEEDACHLPQNQTDGGEVVQDVNSSVQMVMMEQLDPTLLQMKTEVMEGTVAPEAEAAVDDTQIITLQVVNMEEQPINIGELQLVQVPVPVTVPVATTSVEELQGAYENEVSKEGLAESEPMICHTLPLPEGFQVVKVGANGEVETLEQGELPPQEDSSWQKDPDYQPPAKKTKKTKKSKLRYTEEGKDVDVSVYDFEEEQQEGLLSEVNAEKVVGNMKPPKPTKIKKKGVKKTFQCELCSYTCPRRSNLDRHMKSHTDERPHKCHLCGRAFRTVTLLRNHLNTHTGTRPHKCPDCDMAFVTSGELVRHRRYKHTHEKPFKCSMCDYASVEVSKLKRHIRSHTGERPFQCSLCSYASRDTYKLKRHMRTHSGEKPYECYICHARFTQSGTMKMHILQKHTENVAKFHCPHCDTVIARKSDLGVHLRKQHSYIEQGKKCRYCDAVFHERYALIQHQKSHKNEKRFKCDQCDYACRQERHMIMHKRTHTGEKPYACSHCDKTFRQKQLLDMHFKRYHDPNFVPAAFVCSKCGKTFTRRNTMARHADNCAGPDGVEGENGGETKKSKRGRKRKMRSKKEDSSDSEENAEPDLDDNEEEEEPAVEIEPEPEPQPQPPPPPQPVAPAPPPAKKRRGRPPGRTNQPKQNQPTAIIQVEDQNTGAIENIIVEVKKEPDAEPAEGEEEEAQAATTDAPNGDLTPEMILSMMDR
With B2 the binding [2] was “binds”.

No constants are given. Whether binding was seen depends on the method and setting. In cells and extracts the contact can be indirect. Binding can be weak; no strength is given.
